For this test, the target named is YTHDF2, bait of the affinity purification in HEK293T cells (UniProt Q9Y5A9). As to the kind of experiment: affinity purification with mass spectrometry; tandem-affinity purification of the tagged bait from HEK293T cells; bound proteins identified by mass spectrometry.

Chains of the proteins cited; added tags and fusions are not shown.
UniProt Q9Y5A9: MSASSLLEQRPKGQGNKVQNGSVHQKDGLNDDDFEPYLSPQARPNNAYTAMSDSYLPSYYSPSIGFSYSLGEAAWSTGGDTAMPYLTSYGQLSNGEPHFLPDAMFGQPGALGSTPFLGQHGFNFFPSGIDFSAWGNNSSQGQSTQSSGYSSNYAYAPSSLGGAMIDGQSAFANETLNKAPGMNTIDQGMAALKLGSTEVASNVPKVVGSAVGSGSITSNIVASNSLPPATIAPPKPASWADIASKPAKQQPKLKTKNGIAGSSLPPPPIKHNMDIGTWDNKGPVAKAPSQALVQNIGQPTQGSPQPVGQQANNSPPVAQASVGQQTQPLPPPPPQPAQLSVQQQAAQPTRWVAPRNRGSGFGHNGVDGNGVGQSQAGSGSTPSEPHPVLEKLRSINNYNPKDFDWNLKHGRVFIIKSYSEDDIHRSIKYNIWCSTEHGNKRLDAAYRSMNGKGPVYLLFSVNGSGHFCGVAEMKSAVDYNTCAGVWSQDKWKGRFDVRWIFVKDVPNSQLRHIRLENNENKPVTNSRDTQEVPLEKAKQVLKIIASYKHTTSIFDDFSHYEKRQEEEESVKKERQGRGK
UniProt P48634: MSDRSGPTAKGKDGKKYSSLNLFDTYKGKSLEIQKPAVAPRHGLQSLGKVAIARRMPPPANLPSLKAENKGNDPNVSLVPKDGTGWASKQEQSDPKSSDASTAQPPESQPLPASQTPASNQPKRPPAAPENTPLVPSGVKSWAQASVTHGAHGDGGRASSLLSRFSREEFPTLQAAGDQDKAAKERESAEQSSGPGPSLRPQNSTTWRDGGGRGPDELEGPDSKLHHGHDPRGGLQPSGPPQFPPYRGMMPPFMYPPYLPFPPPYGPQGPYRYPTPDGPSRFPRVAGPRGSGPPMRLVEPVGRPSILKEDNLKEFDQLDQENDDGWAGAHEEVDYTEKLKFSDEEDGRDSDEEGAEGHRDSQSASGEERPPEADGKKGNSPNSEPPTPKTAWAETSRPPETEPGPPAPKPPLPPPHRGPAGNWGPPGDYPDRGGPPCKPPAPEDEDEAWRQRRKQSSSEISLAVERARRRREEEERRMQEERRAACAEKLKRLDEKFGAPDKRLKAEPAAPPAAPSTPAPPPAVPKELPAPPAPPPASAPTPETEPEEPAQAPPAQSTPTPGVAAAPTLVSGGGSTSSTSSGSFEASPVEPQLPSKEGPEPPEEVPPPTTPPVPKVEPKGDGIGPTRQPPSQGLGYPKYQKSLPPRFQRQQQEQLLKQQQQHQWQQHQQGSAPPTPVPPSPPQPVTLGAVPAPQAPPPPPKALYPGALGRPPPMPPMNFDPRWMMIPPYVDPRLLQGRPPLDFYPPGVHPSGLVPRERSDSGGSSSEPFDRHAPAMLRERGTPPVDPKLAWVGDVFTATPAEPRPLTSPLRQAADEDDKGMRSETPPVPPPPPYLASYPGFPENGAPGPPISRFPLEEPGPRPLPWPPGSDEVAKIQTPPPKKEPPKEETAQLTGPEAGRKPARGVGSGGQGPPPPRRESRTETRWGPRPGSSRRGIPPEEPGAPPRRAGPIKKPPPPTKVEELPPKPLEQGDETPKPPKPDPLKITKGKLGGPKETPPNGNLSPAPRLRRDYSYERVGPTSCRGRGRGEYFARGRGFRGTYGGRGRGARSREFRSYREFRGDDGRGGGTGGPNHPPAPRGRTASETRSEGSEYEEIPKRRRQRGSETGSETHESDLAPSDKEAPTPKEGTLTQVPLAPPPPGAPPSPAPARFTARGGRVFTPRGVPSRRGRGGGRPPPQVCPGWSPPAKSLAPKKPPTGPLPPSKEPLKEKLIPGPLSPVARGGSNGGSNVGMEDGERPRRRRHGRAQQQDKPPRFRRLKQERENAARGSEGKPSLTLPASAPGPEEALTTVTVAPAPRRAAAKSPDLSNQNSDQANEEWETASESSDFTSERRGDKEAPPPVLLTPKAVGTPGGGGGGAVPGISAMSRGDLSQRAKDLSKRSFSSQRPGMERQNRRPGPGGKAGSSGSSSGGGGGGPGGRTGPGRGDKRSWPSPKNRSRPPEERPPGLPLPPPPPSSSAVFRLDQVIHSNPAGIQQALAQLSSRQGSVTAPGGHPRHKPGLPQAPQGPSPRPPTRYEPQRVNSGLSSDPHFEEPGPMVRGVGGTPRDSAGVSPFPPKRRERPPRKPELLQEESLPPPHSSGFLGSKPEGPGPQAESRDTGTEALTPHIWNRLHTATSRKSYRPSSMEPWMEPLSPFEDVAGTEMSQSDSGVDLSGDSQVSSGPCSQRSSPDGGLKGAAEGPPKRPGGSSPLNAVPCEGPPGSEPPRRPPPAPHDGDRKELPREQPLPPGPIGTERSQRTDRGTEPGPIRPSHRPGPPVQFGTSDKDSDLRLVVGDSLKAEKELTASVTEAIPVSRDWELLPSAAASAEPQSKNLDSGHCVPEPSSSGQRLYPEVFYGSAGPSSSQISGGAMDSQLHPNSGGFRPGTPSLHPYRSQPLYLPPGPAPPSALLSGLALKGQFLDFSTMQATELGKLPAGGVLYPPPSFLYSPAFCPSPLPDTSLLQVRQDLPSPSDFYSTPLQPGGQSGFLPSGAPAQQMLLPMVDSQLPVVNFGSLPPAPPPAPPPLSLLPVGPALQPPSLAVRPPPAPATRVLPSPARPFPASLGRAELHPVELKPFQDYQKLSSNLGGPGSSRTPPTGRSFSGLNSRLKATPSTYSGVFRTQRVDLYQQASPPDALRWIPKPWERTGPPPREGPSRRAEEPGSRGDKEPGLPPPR

Results are given in words; binding and its absence hold for the method and conditions named. Binding seen in cells or lysates may run through a third protein. A yes stands for co-enrichment or nearness to the bait. Other partners may have been found.

For the substance “PRRC2A, endogenous in HEK293T cells (from UniProt P48634 1-2157)”, the binding result is “binds”.

(Values after paper PMC6318280, “A novel m^6A reader Prrc2a controls oligodendroglial specification and myelination” (Cell Research, 2018).)
